Results are given in words; binding and its absence hold for the method and conditions named. For part of these data: In cells and extracts the contact can be indirect. Some results given as binding are weak or reduced against the parent protein; the word gives no strength.
B1: ALB-E05 (designed binder)
chain: LPAPKNLVVSRVTEDSARLSWTAPDAAFDSFQIEYWEDDVGGEAIVLTVPGSERSYDLTGLKPGTEYDVYILGVKGGWESGPLSAIFTT
B2: ALB-H9 (designed binder)
chain: LPAPKNLVVSRVTEDSARLSWTAPDAAFDSFHIEYWEQSIVGEAIVLTVPGSERSYDLTGLKPGTEYRVWIYGVKGGNDSWPLSAIFTT
B3: ALB-E07 (designed binder)
chain: LPAPKNLVVSRVTEDSARLSWTAPDAAFDSFKILYEEYLVFGEAIVLTVPGSERSYDLTGLKPGTEYWVAIWGVKGGQVSGTLSAIFTT
B4: ALB34 (designed binder)
chain: LPAPKNLVVSEVTEDSARLSWTAPDAAFDSFLIQYQESEKVGEAIVLTVPGSERSYDLTGLKPGTEYTVSIYGVKGGHRSNPLSAIFTTGGGGSGGGGSGGGGSGGGGSLPAPKNLVVSRVTEDSARLSWTAPDAAFDSFHIEYWEQSIVGEAIVLTVPGSERSYDLTGLKPGTEYRVWIYGVKGGNDSWPLSAIFTTHHHHHH
B5: ALB21 (designed binder)
chain: LPAPKNLVVSRVTEDSARLSWTAPDAAFDSFKILYEEYLVFGEAIVLTVPGSERSYDLTGLKPGTEYWVAIWGVKGGQVSGTLSAIFTTGGGGSGGGGSGGGGSGGGGSLPAPKNLVVSEVTEDSARLSWTAPDAAFDSFLIQYQESEKVGEAIVLTVPGSERSYDLTGLKPGTEYTVSIYGVKGGHRSNPLSAIFTTHHHHHH
B6: ALB18 (designed binder)
chain: LPAPKNLVVSEVTEDSARLSWTAPDAAFDSFLIQYQESEKVGEAIVLTVPGSERSYDLTGLKPGTEYTVSIYGVKGGHRSNPLSAIFTTGGGGSGGGGSGGGGSGGGGSLPAPKNLVVSRVTEDSARLSWTAPDAAFDSFQIEYWEDDVGGEAIVLTVPGSERSYDLTGLKPGTEYDVYILGVKGGWESGPLSAIFTTHHHHHH
B7: ALB35 (designed binder)
chain: LPAPKNLVVSRVTEDSARLSWTAPDAAFDSFHIEYWEQSIVGEAIVLTVPGSERSYDLTGLKPGTEYRVWIYGVKGGNDSWPLSAIFTTGGGGSGGGGSGGGGSGGGGSLPAPKNLVVSEVTEDSARLSWTAPDAAFDSFLIQYQESEKVGEAIVLTVPGSERSYDLTGLKPGTEYTVSIYGVKGGHRSNPLSAIFTTHHHHHH
B8: ALB30 (designed binder)
chain: LPAPKNLVVSRVTEDSARLSWTAPDAAFDSFQIEYWEDDVGGEAIVLTVPGSERSYDLTGLKPGTEYDVYILGVKGGWESGPLSAIFTTGGGGSGGGGSGGGGSGGGGSLPAPKNLVVSEVTEDSARLSWTAPDAAFDSFLIQYQESEKVGEAIVLTVPGSERSYDLTGLKPGTEYTVSIYGVKGGHRSNPLSAIFTTHHHHHH
B9: ALB33 (designed binder)
chain: LPAPKNLVVSEVTEDSARLSWTAPDAAFDSFLIQYQESEKVGEAIVLTVPGSERSYDLTGLKPGTEYTVSIYGVKGGHRSNPLSAIFTTGGGGSGGGGSGGGGSGGGGSLPAPKNLVVSRVTEDSARLSWTAPDAAFDSFKILYEEYLVFGEAIVLTVPGSERSYDLTGLKPGTEYWVAIWGVKGGQVSGTLSAIFTTHHHHHH

Protein sequences, listed by entry. Tags and fused reporters are not part of them. Residues count along the entry.
Human serum albumin Domain I (P02768, residues 25-221): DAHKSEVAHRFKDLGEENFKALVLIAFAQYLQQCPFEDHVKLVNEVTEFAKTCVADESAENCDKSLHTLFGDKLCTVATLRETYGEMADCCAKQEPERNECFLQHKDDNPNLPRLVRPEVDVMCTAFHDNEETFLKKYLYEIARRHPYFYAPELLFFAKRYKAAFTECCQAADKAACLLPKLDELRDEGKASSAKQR
Human serum albumin Domain III (P02768, residues 405-609): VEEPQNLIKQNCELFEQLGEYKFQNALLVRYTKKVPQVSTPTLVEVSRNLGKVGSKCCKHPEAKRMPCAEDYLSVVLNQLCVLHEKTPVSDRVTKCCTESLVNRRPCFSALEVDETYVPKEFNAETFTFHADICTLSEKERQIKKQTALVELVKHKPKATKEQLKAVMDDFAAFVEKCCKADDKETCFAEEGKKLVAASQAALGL

biological target: Human serum albumin Domain III (human) (UniProt P02768); assay: ELISA, clone lysate on coated HSA domain constructs

Row | binding | Binder
1 | binds | B1
2 | binds | B2

biological target: Human serum albumin Domain I (human) (UniProt P02768); assay: as above

Row | binding | Binder
3 | binds | B3

biological target: T1, Human Serum Albumin (human, UniProt P02768 25-609); assay: IMAC pull-down of endogenous albumin from normal serum, SDS-PAGE
T1 construct: also called HSA

Row | binding | Binder
4 | binds | B4
5 | binds | B5
6 | binds | B6
7 | binds | B7
8 | binds | B8
9 | binds | B9

— patent US20170348397A1 (Janssen / Centocor, published 2017)
